Here are results for 2 molecules from PMC5103417.

Results are given in words; binding and its absence hold for the method and conditions named. In cells and extracts the contact can be indirect. A yes stands for co-enrichment or nearness to the bait. Other partners may have been found.

This assay concerns the target MAV_1356 protein (M. avium calmodulin-like protein) (Mycobacterium avium subsp. hominissuis 104). Briefly: affinity purification with mass spectrometry; only the target purified.

B1: Annexin A1 (protein, UniProt P04083 1-346)
chain: MAMVSEFLKQAWFIENEEQEYVQTVKSSKGGPGSAVSPYPTFNPSSDVAALHKAIMVKGVDEATIIDILTKRNNAQRQQIKAAYLQETGKPLDETLKKALTGHLEEVVLALLKTPAQFDADELRAAMKGLGTDEDTLIEILASRTNKEIRDINRVYREELKRDLAKDITSDTSGDFRNALLSLAKGDRSEDFGVNEDLADSDARALYEAGERRKGTDVNVFNTILTTRSYPQLRRVFQKYTKYSKHDMNKVLDLELKGDIEKCLTAIVKCATSKPAFFAEKLHQAMKGVGTRHKALIRIMVSRSEIDMNDIKAFYQKMYGISLCQAILDETKGDYEKILVALCGGN
modifications: biotin (lysate labelled with sulfo-NHS-LC biotin)
Take B1: the binding result was “binds”.

B2: Protein S100-A8 (protein, UniProt P05109 1-93)
chain: MLTELEKALNSIIDVYHKYSLIKGNFHAVYRDDLKKLLETECPQYIRKKGADVWFKELDINTDGAVNFQEFLILVIKMGVAAHKKSHEESHKE
modifications: biotin (lysate labelled with sulfo-NHS-LC biotin)
Take B2: the binding result is given as “binds”.
